PubChem BioAssay AID686943 | Drosophila RNAi Screening Center | 2013

Assay: 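Fly genes whose loss alters ERK activation after insulin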 (primary screen)
Cells: Drosophila S2R+ haemocyte-like cells expressing YFP-tagged ERK (Rolled)
Knock-down reagent: long dsRNA against Drosophila genes
Treatment: insulin stimulation versus unstimulated cells; dose and duration not given
Measured: 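Antibody staining for doubly phosphorylated ERK divided by ERK-YFP signal, as plate z-scores, in insulin-treated and untreated cells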
Reading the numbers: replicate 1, z-score of dpERK with insulin: higher = more active ERK per ERK-YFP after insulin
The deposit covers about 23,000 reagents; below is a random part of those that have a named target and a result. 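Extra replicates exist only for a retested subset of genes; insulin dose and duration not given; both raised and lowered dpERK matter.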 Further read-outs or replicates are left out here. Not stated in the record: the amount of reagent, the time to read-out.

Depletion of Or23a [DRSC00767] came out at: replicate 1, z-score of dpERK with insulin -0.77.
Depletion of CG34124 [DRSC00849] resulted in: replicate 1, z-score of dpERK with insulin 0.43.
Knock-down of CG18568 [DRSC06768] resulted in: replicate 1, z-score of dpERK with insulin 0.11.
Against east [DRSC18770], the entry reads replicate 1, z-score of dpERK with insulin -3.25.
Depletion of Tet [DRSC08006] resulted in: replicate 1, z-score of dpERK with insulin 0.8.
Tet [DRSC08550] gave replicate 1, z-score of dpERK with insulin -2.39.
With knock-down of Tet [DRSC08646], the screen gave replicate 1, z-score of dpERK with insulin 0.54.
After knock-down of CG13021 [DRSC17893] the results were replicate 1, z-score of dpERK with insulin 0.91.
Depletion of RNASEK [DRSC21641] came out at: replicate 1, z-score of dpERK with insulin -1.79.
Against nocte [DRSC18123], the values are replicate 1, z-score of dpERK with insulin -0.94.
Depletion of CG17821 [DRSC06696] gave: replicate 1, z-score of dpERK with insulin 0.01.
Knock-down of CG6304 [DRSC02948] gave: replicate 1, z-score of dpERK with insulin 0.46.
